The list shows a part of the results. Many values rest on one well or one pass, so single values are uncertain.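 Cells were imaged in 1,536-well plates, and nuclei stained with an antibody against cleaved PARP were counted against all DNA-stained nuclei to give the apoptosis fraction. Screening doses were chosen to leave most cells alive, and resting and induced cleaved-PARP levels differ strongly between cell lines.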
Legend:
Test in all cases: cleaved PARP positive nuclei fraction relative to DMSO control; melanoma cells; higher = more apoptosis
Settings in all cases: library dose: low library concentration; 72 h
COLO792 = system: COLO792
COLO800 = system: COLO800
COLO829 = system: COLO829
G361 = system: G361
IPC-298 = system: IPC-298
IST-MEL1 = system: IST-MEL1
LB2518-MEL = system: LB2518-MEL
LOXIMVI = system: LOXIMVI
MEL-HO = system: MEL-HO

SMILES | cleaved PARP positive nuclei fraction (COLO792) | cleaved PARP positive nuclei fraction (COLO800) | cleaved PARP positive nuclei fraction (COLO829) | cleaved PARP positive nuclei fraction (G361) | cleaved PARP positive nuclei fraction (IPC-298) | cleaved PARP positive nuclei fraction (IST-MEL1) | cleaved PARP positive nuclei fraction (LB2518-MEL) | cleaved PARP positive nuclei fraction (LOXIMVI) | cleaved PARP positive nuclei fraction (MEL-HO)
CN(c1ncccc1CNc1nc(Nc2ccc3c(c2)CC(=O)N3)ncc1C(F)(F)F)S(C)(=O)=O + O=C(Oc1ccc([N+](=O)[O-])cc1)N1CCC(C(O)(c2ccc3c(c2)OCO3)c2ccc3c(c2)OCO3)CC1 [JZL184] (first compound 0.08 µM, partner dose 1 µM) | 117% | 38.2% | 84.6% | 58% | 46.7% | 64.9% | 65% | 69.8% | –
Cn1cnc2c(F)c(Nc3ccc(Br)cc3Cl)c(C(=O)NOCCO)cc21 [selumetinib] + Cc1cc(SCc2sc(-c3ccc(C(F)(F)F)c(F)c3)nc2C)ccc1OCC(=O)O [GW0742] (first compound 0.015 µM, partner dose 2 µM) | 91.4% | 74.4% | 86.2% | 161% | 124% | 162% | 357% | 59.9% | –
C[C@]12O[C@H](C[C@]1(O)CO)n1c3ccccc3c3c4c(c5c6ccccc6n2c5c31)CNC4=O [Lestaurtinib] + NCC(=O)Nc1ccc(-n2nc(C(F)(F)F)cc2-c2ccc3c(ccc4ccccc43)c2)cc1 [OSU03012] (first compound 0.004 µM, partner dose 1 µM) | 38.6% | 51.9% | 93.7% | 137% | 68.6% | 39.6% | 109% | 81.7% | 41%
N.N.[Cl][Pt][Cl] [cisplatin] + CCc1ccc(CCOc2ccc(CC3SC(=O)NC3=O)cc2)nc1 [pioglitazone] (first compound 1.6 µM, partner dose 2 µM) | 79.8% | 109% | 52.8% | 143% | 135% | 127% | 97.9% | 122% | –
Cn1cnc2c(F)c(Nc3ccc(Br)cc3Cl)c(C(=O)NOCCO)cc21 [selumetinib] + C/C(O)=C(\C#N)C(=O)Nc1cc(Br)ccc1Br [LFM-A13] (first compound 0.015 µM, partner dose 2 µM) | 70.7% | 41.2% | 135% | 81.3% | 223% | 79.1% | 113% | 95.8% | –
Nc1ncn([C@H]2C[C@H](O)[C@@H](CO)O2)c(=O)n1 [decitabine] + O=C(Oc1ccc([N+](=O)[O-])cc1)N1CCC(C(O)(c2ccc3c(c2)OCO3)c2ccc3c(c2)OCO3)CC1 [JZL184] (first compound 0.1 µM, partner dose 1 µM) | 61.7% | 182% | 81.5% | 116% | 291% | 87.5% | 113% | 54.5% | –
C[As](C)SC[C@H](NC(=O)CC[C@H](N)C(=O)O)C(=O)NCC(=O)O [Darinaparsin] + CO[C@@H]1[C@H](N(C)C(=O)c2ccccc2)C[C@H]2O[C@]1(C)n1c3ccccc3c3c4c(c5c6ccccc6n2c5c31)C(=O)NC4 [Midostaurin] (first compound 0.4 µM, partner dose 0.08 µM) | 255% | 53.5% | 113% | 143% | 290% | 111% | 63.1% | 91% | 124%
CC1(C)CCC(c2ccc(Cl)cc2)=C(CN2CCN(c3ccc(C(=O)NS(=O)(=O)c4ccc(N[C@H](CCN5CCOCC5)CSc5ccccc5)c(S(=O)(=O)C(F)(F)F)c4)cc3)CC2)C1 + Cc1cc(SCc2sc(-c3ccc(C(F)(F)F)c(F)c3)nc2C)ccc1OCC(=O)O [GW0742] (first compound 0.4 µM, partner dose 2 µM) | 309% | 42.1% | 117% | 165% | 309% | 173% | 85.2% | 72.8% | –
N.N.[Cl][Pt][Cl] [cisplatin] + COc1cc(N2CCC(N3CCN(C)CC3)CC2)ccc1Nc1ncc(Cl)c(Nc2ccccc2S(=O)(=O)C(C)C)n1 [NVP-TAE684] (first compound 1.6 µM, partner dose 0.08 µM) | 155% | 63.9% | 129% | 79.8% | 168% | 102% | 125% | 137% | –
C[C@@H](N)c1ccc(C(=O)Nc2ccnc3[nH]ccc23)cc1 + C/C(O)=C(\C#N)C(=O)Nc1cc(Br)ccc1Br [LFM-A13] (first compound 0.4 µM, partner dose 2 µM) | 171% | 40.1% | 90% | 91.9% | 32.9% | 110% | 134% | 118% | –
C=C(c1ccc(C(=O)O)cc1)c1cc2c(cc1C)C(C)(C)CCC2(C)C [Bexarotene] + O=C(Oc1ccc([N+](=O)[O-])cc1)N1CCC(C(O)(c2ccc3c(c2)OCO3)c2ccc3c(c2)OCO3)CC1 [JZL184] (first compound 2 µM, partner dose 1 µM) | 176% | 14.4% | 70.2% | 163% | 173% | 63.6% | 73.2% | 18.5% | –

Reference: the supplement of paper PMC4604168 (melanoma cell lines)
